{"source": "the supplement of paper PMC10727501", "note": "Some of the results follow. This data set is noisy: repeats of one test often differ as much as different tests do.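 Free-swimming zebrafish larvae were assessed for O-bend response probability to dark flashes (naive: first five; training: remaining flashes across four 60-flash blocks; test: later 60-flash block) and for OMR turning toward alternating leftward/rightward LED motion. Six treated larvae were compared against sixty 0.1% DMSO controls; hits required |SSMD|≥2.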", "data": [{"tested_on": "Danio rerio larvae (5 dpf, TLF)", "test": "Prob-Naive (SSMD vs DMSO vehicle); higher = higher than vehicle (e.g. higher dark-flash O-bend response probability, or better optomotor performance)", "conditions": "10 µM; pre-incubation: 30-90 min", "values": [{"smiles": "O=C(C1CCCCC1)N1CC(=O)N2CCc3ccccc3C2C1", "note": "(stereo not drawn) [Praziquantel]", "Prob-Naive": 0.292}, {"smiles": "CN1CCC(=C2c3ccccc3CCc3sccc32)CC1.O=C(O)CC(O)C(=O)O", "note": "[Pizotifen Malate]", "Prob-Naive": -0.605}, {"smiles": "CC(C)c1c(C(=O)Nc2ccccc2)c(-c2ccccc2)c(-c2ccc(F)cc2)n1CC[C@@H](O)C[C@@H](O)CC(=O)[O-].CC(C)c1c(C(=O)Nc2ccccc2)c(-c2ccccc2)c(-c2ccc(F)cc2)n1CC[C@@H](O)C[C@@H](O)CC(=O)[O-].[Ca+2]", "note": "[Atorvastatin Calcium]", "Prob-Naive": 0.507}, {"smiles": "O=C(O)[C@H](O)[C@@H](O)C(=O)O.c1cnc2cc3c(cc2n1)C1CNCC3C1", "note": "[Varenicline Tartrate]", "Prob-Naive": 0.499}, {"smiles": "C[C@H](N[C@@H](CCc1ccccc1)C(=O)O)C(=O)N1CCC[C@H]1C(=O)O.O.O", "note": "[Enalaprilat Dihydrate]", "Prob-Naive": -0.29}, {"smiles": "CC(C)(C)NS(=O)(=O)c1cncc(-c2cc(F)c3nc(N)nn3c2)c1", "Prob-Naive": 0.538}, {"smiles": "COCCCN1CCC(NC(=O)c2cc(Cl)c(N)c3c2OCC3)CC1.O=C(O)CCC(=O)O", "note": "[Prucalopride Succinat]", "Prob-Naive": -0.026}, {"smiles": "O=C(NCCCNc1nc(Nc2cccc(NC(=O)N3CCCC3)c2)ncc1I)c1cccs1", "Prob-Naive": 0.0951}, {"smiles": "Nc1c(CC(=O)[O-])cccc1C(=O)c1ccccc1.O.[Na+]", "note": "[Amfenac Sodium Monohydrate]", "Prob-Naive": 0.241}, {"smiles": "C[C@]12C[C@@]3(O)O[C@@H](O1)[C@]1(COC(=O)c4ccccc4)[C@H]3C[C@@]12O[C@@H]1O[C@H](CO)[C@@H](O)[C@H](O)[C@H]1O", "note": "[Paeoniflorin]", "Prob-Naive": 0.516}, {"smiles": "COc1ccccc1OCC(O)CO", "note": "(stereo not drawn) [Guaifenesin]", "Prob-Naive": -0.411}, {"smiles": "CN1CCC(CNc2ccc3ncc(-c4cccc(OC(F)(F)F)c4)n3n2)CC1", "note": "[SGI-1776 free base]", "Prob-Naive": 0.102}, {"smiles": "O=C(O)c1cccnc1", "note": "[Nicotinic Acid]", "Prob-Naive": -0.0365}, {"smiles": "CC(=O)N[C@@H]1[C@H]([C@H](O)[C@H](O)CO)OC(C(=O)O)=C[C@@H]1NC(=N)N", "note": "[Zanamivir]", "Prob-Naive": 0}, {"smiles": "Cl.c1ccc(C2CN3CCSC3=N2)cc1", "note": "(stereo not drawn) [Tetramisole HCl]", "Prob-Naive": -0.461}, {"smiles": "O=C(Nc1ccc2c(=O)cc(-c3nnn[nH]3)oc2c1)c1ccc(OCCCCc2ccccc2)cc1", "note": "[Pranlukast]", "Prob-Naive": -0.0984}, {"smiles": "COc1ccc(-c2coc3cc(O)ccc3c2=O)cc1", "note": "[Formononetin]", "Prob-Naive": 0.285}, {"smiles": "Cc1c(-c2ccc(O)cc2)n(Cc2ccc(OCCN3CCCCCC3)cc2)c2ccc(O)cc12.Cl", "note": "[Bazedoxifene HCl]", "Prob-Naive": -0.584}, {"smiles": "CC(C)Cc1ccc(C(C)C(=O)O)cc1.NCCCC[C@H](N)C(=O)O", "note": "(stereo not drawn) [Ibuprofen Lysine (NeoProfen)]", "Prob-Naive": -0.0588}, {"smiles": "Cc1nc2c([nH]1)-c1ccccc1N(C(=O)c1ccc(NC(=O)c3ccccc3-c3ccccc3)cc1)CC2.Cl", "note": "[Conivaptan HCl]", "Prob-Naive": 0.0956}, {"smiles": "CCc1ccc(OCc2ccccc2C(=O)Nc2ccc3nc(C)cc(N)c3c2)cc1.Cl", "Prob-Naive": -0.678}, {"smiles": "Cc1ccc(C(=O)Nc2ccc(CN3CCN(C)CC3)c(C(F)(F)F)c2)cc1C#Cc1cnc2cccnn12", "Prob-Naive": -0.0595}, {"smiles": "COc1cccc(C=NCCN=Cc2cccc(OC)c2[O-])c1[O-].[Cl-].[Mn+3]", "Prob-Naive": 0.153}, {"smiles": "Cc1ccc(S(=O)(=O)NC(=O)NN2CCCCCC2)cc1", "note": "[Tolazamide]", "Prob-Naive": 0.153}, {"smiles": "CN1C[C@@H]2c3ccccc3Oc3ccc(Cl)cc3[C@H]2C1.O=C(O)/C=C\\C(=O)O", "note": "[Asenapine]", "Prob-Naive": 0.499}, {"smiles": "C[C@@H]1C[C@H]2[C@@H]3C[C@H](F)C4=CC(=O)C=C[C@]4(C)[C@]3(F)[C@H](O)C[C@]2(C)[C@@]1(O)C(=O)CO", "note": "[Flumethasone]", "Prob-Naive": -0.42}, {"smiles": "COc1ccc(CN(CCN(C)C)c2ccccn2)cc1.O=C(O)C=CC(=O)O", "note": "[Pyrilamine Maleate]", "Prob-Naive": 0.444}, {"smiles": "CC(C)(Oc1ccc(CCNC(=O)c2ccc(Cl)cc2)cc1)C(=O)O", "note": "[Bezafibrate]", "Prob-Naive": -0.269}]}]}
